# Test results reported in PubChem BioAssay AID1487 (National Center for Advancing Translational Sciences (NCATS), 2009).
# The list shows a part of the results. The main result of the screen is listed elsewhere. These columns were measured beside it and carry no call. Compounds called inactive in the main read-out are mostly missing here. Potencies come from curve fits of mixed quality, noted in brackets.
# Assay: qHTS Assay for Modulators of Lamin A Splicing
# Conditions: HeLa LMNA splicing GFP/RFP minigene ratio, 48 h
# Outline: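 S3 HeLa cells stably expressing lamin A-EGFP splicing minigene plus DsRed2, 600 cells/well, 48 h compound exposure at 37C. Laser-scanning cytometry; analysed as GFP (500-530 nm)/RFP (575-640 nm) total intensity ratio; 0.5% DMSO vehicle.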
# [1] = measured here: GFP splicing reporter channel
# [2] = measured here: RFP viability control channel
SMILES,AC50 [1],AC50 [2]
Cc1ccc(-c2ccnc(=S)[nH]2)cc1,"28.2 µM [falling, single point]","35.5 µM [falling, single point]"
O=C1C(NS(=O)(=O)c2cccs2)=C(N2CCN(c3cccc(Cl)c3)CC2)C(=O)c2ccccc21,–,"28.2 µM [rising, single point]"
COc1ccc(OC)c2sc(N3CCN(C(=O)c4ccc5c(c4)CCCC5)CC3)nc12,–,"35.5 µM [rising, single point]"
Cc1ccc(-c2c3c(=O)n(C)c(=O)n(C)c3cn2Cc2cccnc2)cc1,–,"0.00447 µM [falling, full curve, poor fit]"
O=[N+]([O-])c1cc2c(c(CSc3nnc(Nc4ccccc4)s3)c1)OCOC2,"6.31 µM [falling, single point]",–
c1ccc(N2CCN(Cc3cccn3-c3nnc(N4CCN(C5CCCCC5)CC4)s3)CC2)cc1,"0.0282 µM [rising, full curve, poor fit]","0.0447 µM [rising, full curve, poor fit]"
Cc1sc(NC(=O)c2ccco2)c(C(c2cccnc2)N2CCC(C)CC2)c1C (configuration not stated),"1 µM [rising, full curve, poor fit]","0.631 µM [rising, full curve]"
COc1ccc(/C=C\C(=O)CC(O)(c2ccccc2)C(F)(F)F)cc1 (configuration not stated),"35.5 µM [falling, single point]","35.5 µM [falling, single point]"
Cn1c(/C(C#N)=C(\O)c2ccc([N+](=O)[O-])cc2)nc2ccccc21,–,"3.16 µM [rising, partial curve]"
COCCn1c(N)c(C(=O)OCc2ccccc2)c2nc3ccccc3nc21,"1.41 µM [rising, partial curve, poor fit]","4.47 µM [rising, single point]"
O=C(Nc1ccc(O)cc1)c1cc2ccccc2c(=O)s1,"11.2 µM [falling, single point]",–
Cc1ccc(-n2ncc3c(=O)n(CC(=O)N4CCCCCC4)cnc32)cc1,"2.82 µM [rising, partial curve, poor fit]","12.6 µM [rising, partial curve, poor fit]"
O=C(Nc1cccc(Cl)c1)c1ccc(F)c(S(=O)(=O)NCc2ccc3c(c2)OCO3)c1,"14.1 µM [rising, single point]","31.6 µM [rising, single point]"
CCOC(=O)CC1=NN(c2ccccc2)C(=O)C1,"0.00316 µM [falling, full curve, poor fit]",–
CN(C(=O)COc1ccc(Br)cc1Cl)C1CCCCC1,–,"7.08 µM [falling, partial curve, poor fit]"
Cc1cc(Cl)c(S(=O)(=O)N2CCCCCC2)cc1OCC(=O)NC1CCCCC1,"0.794 µM [rising, full curve]","0.631 µM [rising, full curve, poor fit]"
CCOc1cc(CNc2cccc3ccccc23)cc(Br)c1OCC(=O)NC(C)(C)C,"35.5 µM [rising, single point]","35.5 µM [rising, single point]"
CC(=O)N(C)c1ccc(NC(=S)Nc2ccc(C(C)C)cc2)cc1,–,"5.62 µM [rising, partial curve, poor fit]"
COc1ccc(N2CCN(C(=O)CC34CC5CC(CC(C5)C3)C4)CC2)c([N+](=O)[O-])c1,–,"8.91 µM [rising, partial curve]"
CC(C)N1C(=O)/C(=C\c2nc3ccccc3c(=O)n2-c2ccccc2)c2ccccc21,"5.62 µM [rising, single point]","2.82 µM [falling, single point]"
CCOC(=O)c1c(NC(=O)CSc2ncnc3ccccc23)sc(C(C)=O)c1C,–,"3.16 µM [rising, single point]"
Nc1ccc2c(c1Cl)C(=O)c1ccc(N)c(Cl)c1C2=O,"3.55 µM [falling, partial curve, poor fit]",–
O=C(CSC1=NCCS1)N1CCCC1,–,"35.5 µM [rising, single point]"
CN(C)c1ccc(-c2nc(NCCN3CCOCC3)c3ccccc3n2)cc1,"12.6 µM [falling, partial curve]","17.8 µM [falling, single point]"
COc1ccccc1CNc1cc(-c2ccccc2OC)ncn1,"5.01 µM [falling, full curve]","7.08 µM [falling, partial curve]"
O=C(c1ccco1)N1N=C(c2ccc3nccnc3c2)CC1c1ccccc1 (configuration not stated),"8.91 µM [rising, partial curve]","20 µM [rising, single point]"
Cc1ccc(NC(=S)N2CCC(c3nc4ccccc4s3)CC2)cc1,–,"11.2 µM [rising, partial curve]"

SMILES,AC50 [1],AC50 [2]
O=C(c1cc([N+](=O)[O-])ccc1Cl)N1CCN(c2ccc([N+](=O)[O-])cc2)CC1,–,"11.2 µM [rising, partial curve]"
COC(=O)c1scc(-c2ccc(C)cc2)c1S(=O)(=O)Nc1ccc(F)cc1F,"3.55 µM [falling, full curve, poor fit]",–
CCn1cnc2cc(NC(=O)c3cccs3)ccc21,"0.00447 µM [rising, full curve, poor fit]",–
CC(C)=CCc1c2c(c3occ(-c4ccc(O)cc4)c(=O)c3c1O)C=CC(C)(C)O2,–,"35.5 µM [falling, single point]"
CCC(C)NS(=O)(=O)c1ccc(S(=O)(=O)N2CC=C(c3ccc(F)cc3)CC2)cc1 (configuration not stated),"12.6 µM [rising, single point]","15.8 µM [rising, single point]"
O=C(Nc1ccc(N2CCOCC2)cc1)Nc1ccc2nc(-c3ccco3)c(-c3ccco3)nc2c1,"15.8 µM [falling, partial curve]",–
CCCCn1c(SCc2ccc(C(=O)OC)o2)nc2cc(S(N)(=O)=O)ccc21,–,"3.16 µM [rising, full curve]"
Cc1nn2c(=O)cc(COC(=O)c3cccc(NC(=O)COc4ccccc4Cl)c3)nc2s1,"35.5 µM [rising, single point]","31.6 µM [rising, single point]"
CCN(Cc1ccccc1)c1ccc(/C=N/N2CCOCC2)cc1,–,"20 µM [rising, single point]"
C=CCN(CC=C)C(=S)NC(=O)c1ccc([N+](=O)[O-])cc1,–,"31.6 µM [rising, single point]"
CC1(C)Cc2c(c(N3CCOCC3)nc3snc(N)c23)CO1,"14.1 µM [rising, partial curve, poor fit]","15.8 µM [rising, single point]"
Cc1cc2cc(CCNC(=O)c3ccc(C)c([N+](=O)[O-])c3)c(=O)[nH]c2cc1C,–,"17.8 µM [rising, single point]"
COc1ccc(NC(=S)N(CCN(C)C)C(C)c2ccco2)cc1Cl (configuration not stated),"35.5 µM [rising, single point]","25.1 µM [rising, partial curve]"
CCc1nccn1C(=O)c1cnn2c(C(F)F)cc(-c3ccccc3)nc12,"0.00631 µM [rising, full curve, poor fit]","35.5 µM [rising, single point]"
CC(C)n1c(-c2ccc(N(C)C)cc2)nc2ccccc21,"12.6 µM [rising, partial curve]","22.4 µM [rising, partial curve]"
CSc1ccc(/C=C(\C#N)C(=O)NC2CCCCC2C)cc1 (configuration not stated),"35.5 µM [rising, single point]","35.5 µM [rising, single point]"
O=[N+]([O-])c1ccc(N/N=C/c2ccc[nH]2)cc1,"11.2 µM [rising, partial curve]","17.8 µM [rising, partial curve]"
CCCCC(CC(O)COCCC)c1n[nH]c(=S)n1-c1ccccc1 (configuration not stated),"0.0178 µM [falling, full curve, poor fit]","0.01 µM [falling, full curve, poor fit]"
COc1ccc(CNC(=O)CCC2N=C3c4ccccc4N=C(SCc4cccc(F)c4)N3C2=O)cc1 (configuration not stated),"10 µM [rising, single point]",–
O=C(Cn1cnc(Cl)c1Cl)c1ccccc1,"1.78 µM [rising, partial curve, poor fit]",–
O=C(CCSc1ccccc1)Nc1ccccc1C(=O)N1CCCC1,–,"3.16 µM [rising, single point]"
Cc1cc(C(=O)OCC(=O)NCc2ccco2)c(C)n1-c1ccccc1,"17.8 µM [rising, single point]","10 µM [rising, partial curve]"
Nc1ncnc(Sc2ncccn2)c1[N+](=O)[O-],"25.1 µM [falling, partial curve, poor fit]",–
CCCCSC1=C(C#N)C(c2ccccc2C)C(C(=O)OCC)C(=O)N1 (configuration not stated),–,"15.8 µM [rising, partial curve]"
CN(C)c1ccc(/C=N/NC(=O)c2cccc(C(=O)N/N=C/c3ccc(N(C)C)cc3)n2)cc1,"0.00562 µM [falling, full curve]",–
C=CCc1cccc(CNc2nc3ccccc3n2CCC)c1O,"14.1 µM [rising, single point]",–
Cc1ccc(-n2c(C)cc(C(=O)CSc3nncs3)c2C)cc1,–,"6.31 µM [rising, full curve]"

# An excerpt of these results, with tabs:
SMILES	AC50 [1]	AC50 [2]
CCCCn1c(SCc2ccc(C(=O)OC)o2)nc2cc(S(N)(=O)=O)ccc21	–	3.16 µM [rising, full curve]
Cc1nn2c(=O)cc(COC(=O)c3cccc(NC(=O)COc4ccccc4Cl)c3)nc2s1	35.5 µM [rising, single point]	31.6 µM [rising, single point]
CCN(Cc1ccccc1)c1ccc(/C=N/N2CCOCC2)cc1	–	20 µM [rising, single point]
